{"source": "patent EP0267629", "about": "(dated 1988)", "assay": "Boc solid-phase peptide synthesis; polystyrene carrier with Boc-Lys(ClZ); dicyclohexylcarbodiimide; N-hydroxybenzotriazole active ester for Asn", "conditions": "whole synthesis, scale 0.5 millimole", "note": "Some peptides are written in HELM: one residue between dots, names in brackets for other building blocks, links after the first $.", "data": [{"substance": "PEPTIDE1{R.F.V.F.N.K}$$$$V2.0", "values": [{"measurement": "isolated mass", "value": 211, "unit": "mg"}]}]}
